From patent US20100048714A1, “Methods and Compositions Related to Inhibition of Ceramide Synthesis” (University of Utah Research Foundation, priority 2006, published 2010)
For at least one compound, name, drawing or mass did not settle the structure.

Legend:
soleus muscles = assay: Isolated soleus muscle strips incubated with free fatty acids; settings: 1 mM fatty acid, six-hour incubation; for insulin-stimulated 2-deoxyglucose (2-DOG) uptake: insulin 300 μU/mL
male Sprague Dawley Rats = assay: Insulin tolerance test in dexamethasone-treated rats; type: in vivo, rat; settings: dexamethasone 400 μg/kg IP 24 and 12 hours prior; myriocin 0.3 mg/kg/2 days for 1 week
Procedure: Following an overnight fast, insulin was injected (20 U, IP) and whole blood glucose was determined by glucometer. Values are presented as the ratio of measured blood glucose to fasting blood glucose.
To definitively evaluate effects on insulin sensitivity, as well as to distinguish whether the treatment protocols differentially affected glucose uptake in skeletal muscle or hepatic output by the liver, hyperinsulinemic-euglycemic clamps with D-[U-^14C] glucose and 2-deoxy-D-[2,6-^3H] glucose tracers were performed.

Sprague-Dawley rats [1] = assay: Glucose tolerance test (glucose 1 g/kg IP) in dexamethasone-treated rats; type: in vivo, rat; settings: dexamethasone with or without myriocin pretreatment
Procedure: (A) Sprague-Dawley rats were treated with myriocin (300 μg/Kg, IP, solid bars) or saline (open bars) for two weeks prior to giving administering dexamethasone (40 μg/Kg, IP) or vehicle (5% ethanol) every 12 hours for 36 hours. Animals were euthanized by CO2 inhalation, livers were removed, and ceramide levels were assessed as described in SOM-Methods. Shown are mean ceramide levels+/−S.E.M, n=6 per group. The asterisk denotes that the sample was statistically different from vehicle-treated controls, p<0.05, student's t-test. (B) Livers were obtained as in A, above, and protein and mRNA were extracted as described in SOM-Methods. […] SPT2 protein levels (white bars) were detected by immunoblotting with an antibody from Cayman Chemicals (Ann Arbor, Mich.) and quantified on a Kodak Image Station 2000R (Rochester, N.Y.). […] (E) The glucose infusion rate required to maintain normal glycemia during insulin infusion (4mU/kg/min) was calculated as the average infusion rate during the 60 minute steady state. […]
Tail vein blood (3 μl) was sampled for glucose determination (Hitachi 911 clinical chemistry analyzer, Roche, Indianapolis, Ind. or Glucometer Elite, Bayer Corp., Tarrytown, N.Y.)-30 minutes, immediately before and 15, 30, 45, 60, 90, and 120 min after glucose administration. Additionally, serum was collected and analyzed for insulin by Elisa (Linco Diagnostics, Springfield, Mo.).

Sprague dawley rats = assay: Hyperinsulinemic euglycemic clamps of dexamethasone treated rats; type: in vivo, rat; settings: clamp
Procedure: (§1) (A) Sprague-Dawley rats were treated with myriocin (300 μg/Kg, IP, solid bars) or saline (open bars) for two weeks prior to giving administering dexamethasone (40 μg/Kg, IP) or vehicle (5% ethanol) every 12 hours for 36 hours. Animals were euthanized by CO2 inhalation, livers were removed, and ceramide levels were assessed as described in SOM-Methods. Shown are mean ceramide levels+/−S.E.M, n=6 per group. The asterisk denotes that the sample was statistically different from vehicle-treated controls, p<0.05, student's t-test. (B) Livers were obtained as in A, above, and protein and mRNA were extracted as described in SOM-Methods. Levels of transcripts (solid bars) encoding serine palimitoyl transferase isoforms 1 and 2 (SPT1 and SPT2), dihydroceramide synthases (DCS) TL1, UOG, and TRH3, glucosylceramide synthase (GCS), and acid ceramidase (AC) transcripts were obtained by reverse-transcriptase polymerase chain reaction, normalized to β-actin. SPT2 protein levels (white bars) were detected by immunoblotting with an antibody from Cayman Chemicals (Ann Arbor, Mich.) and quantified on a Kodak Image Station 2000R (Rochester, N.Y.). Data represent the fold-change in transcript or protein in dexamethasone-treated animals relative to vehicle controls. […] (E) The glucose infusion rate required to maintain normal glycemia during insulin infusion (4mU/kg/min) was calculated as the average infusion rate during the 60 minute steady state. […]
Clamps were performed in conscious unrestrained animals using swivels and tethers (Instech, Plymouth Meeting, Pa.) to allow uninterrupted movement of the animal without disruption of infusion lines. […] Blood was sampled from arterial lines in 7 minute intervals and analyzed with a Beckman Glucose analyzer II (Beckman Coulter, Fullerton, Calif.). […] Glucose infusion rates were calculated as the average glucose infusion rate during the 30 minute steady state. […]

Sprague-Dawley rats [2] = assay: Liver ceramide and ceramide-enzyme expression in dexamethasone-treated rats; type: in vivo, rat
Procedure: as §1, with “N.Y.).” for “N.Y.). Data represent the fold-change in transcript or protein in dexamethasone-treated animals relative to vehicle controls.”

[3] = dexamethasone with or without myriocin pretreatment

Row | SMILES | DAG accrual (soleus muscles) | ceramide accumulation (soleus muscles) | insulin-stimulated 2-deoxyglucose (2-DOG) uptake (soleus muscles) | insulin sensitivity in insulin tolerance tests (male Sprague Dawley Rats) | glucose disposal / glucose intolerance in glucose tolerance test (Sprague-Dawley rats [1]) | insulin levels during glucose tolerance test (Sprague-Dawley rats [1]) | 2-deoxyglucose uptake into skeletal muscle / insulin resistance in skeletal muscle (Sprague dawley rats; [3]) | insulin-induced suppression of hepatic glucose output (Sprague dawley rats; [3]) | glucose infusion rate required to maintain euglycemia (Sprague dawley rats; dexamethasone-treated) | ceramide levels in the liver (Sprague-Dawley rats [2]; dexamethasone 40 μg/Kg IP every 12 hours for 36 hours, myriocin 300 μg/Kg IP for two weeks prior) | liver SPT2, DCS-TL1, DCS-UOG, GCS and AC transcript or protein, fold-change relative to vehicle controls (Sprague-Dawley rats [2]; dexamethasone-treated animals, n=5, p<0.01)
1 | CCCCC/C=C\C/C=C\CCCCCCCC(=O)O [linoleate] | induced DAG accrual | but not linoleate, promoted ceramide accumulation | inhibited insulin-stimulated 2-deoxyglucose (2-DOG) uptake |  |  |  |  |  |  |  | 
2 | C[C@@H]1C[C@H]2[C@@H]3CCC4=CC(=O)C=C[C@]4(C)[C@@]3(F)[C@@H](O)C[C@]2(C)[C@@]1(O)C(=O)CO [Dexamethasone] |  |  |  | decreasing insulin sensitivity | impaired glucose disposal | elevated insulin levels | inhibited 2-deoxyglucose uptake | prevented insulin-induced suppression of hepatic glucose output | decreased the glucose infusion rate | promoted ceramide accumulation | significantly elevated
3 | CCCCCCCCCCCCCCCC(=O)O [palmitate] | induced DAG accrual | promoted ceramide accumulation | inhibited insulin-stimulated 2-deoxyglucose (2-DOG) uptake |  |  |  |  |  |  |  | 
